Reference: PubChem BioAssay AID686938 (Drosophila RNAi Screening Center, 2013)
In all, the deposit lists about 23,000 reagents; this is a random part of those with a known target gene and a result. Of all reagents, 75 (0.33%) got an active call. 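Raw plate signals without normalisation; calls rest on plate z-scores that were not deposited; ratio present for only 364 wells.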 The numbers tell different reagents against one gene apart. A plus sign joins genes that one reagent is predicted to hit. Reagent sequences are not shown. The record does not give: the dose of the treatment.

- Test: 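Knock-downs reducing store-operated calcium influx in Drosophila cells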 (primary screen)
- System: Drosophila S2R+ cells
- Reagent: long dsRNA against Drosophila genes, about 0.25 µg dsRNA per well, roughly 10,000 cells
- Timing: 5 days of knock-down before the calcium assay
- Treatment: thapsigargin (SERCA pump blocker) to empty calcium stores; entry signal taken 4 min after adding it
- Measured: 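Duplicate raw fluo-4 intensities per well from a plate reader, at rest and four minutes after thapsigargin emptied calcium stores; entry-to-rest ratio filled for only some wells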
- Reading the numbers: calcium entry signal: higher = stronger calcium signal after store depletion; resting calcium signal: higher = higher resting calcium signal
- Units: calcium entry signal in fluorescence units; resting calcium signal in fluorescence units
- Rule for the call: 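Called when the plate z-score of the entry-to-rest ratio, mean of duplicates, falls below −3; wells with low overall dye signal (Fmax z below −2) or more than five off-targets excluded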
- Calls: active = strongly reduced calcium entry; inactive = no strong reduction

The first 2 records, ahead of the listing:
CG10822 | calcium entry signal, replicate 1 = 5.80e7; calcium entry signal, replicate 2 = 5.21e7; resting calcium signal, replicate 1 = 2.64e7; resting calcium signal, replicate 2 = 2.53e7; activity call = inactive
Non1 (Novel nucleolar protein 1) | calcium entry signal, replicate 1 = 2.09e7; calcium entry signal, replicate 2 = 1.76e7; resting calcium signal, replicate 1 = 1.04e7; resting calcium signal, replicate 2 = 1.01e7; activity call = inactive

Results, from the start:
CG10822 | calcium entry signal, replicate 1 = 5.80e7; calcium entry signal, replicate 2 = 5.21e7; resting calcium signal, replicate 1 = 2.64e7; resting calcium signal, replicate 2 = 2.53e7; activity call = inactive
Non1 (Novel nucleolar protein 1) | calcium entry signal, replicate 1 = 2.09e7; calcium entry signal, replicate 2 = 1.76e7; resting calcium signal, replicate 1 = 1.04e7; resting calcium signal, replicate 2 = 1.01e7; activity call = inactive
CG12071 #1 | calcium entry signal, replicate 1 = 2.90e7; calcium entry signal, replicate 2 = 4.19e7; resting calcium signal, replicate 1 = 1.69e7; resting calcium signal, replicate 2 = 1.97e7; activity call = inactive
CG12071 #2 | calcium entry signal, replicate 1 = 5.57e7; calcium entry signal, replicate 2 = 2.98e7; resting calcium signal, replicate 1 = 2.84e7; resting calcium signal, replicate 2 = 1.27e7; activity call = inactive
mwh (multiple wing hairs) #1 | calcium entry signal, replicate 1 = 4.66e7; calcium entry signal, replicate 2 = 4.36e7; resting calcium signal, replicate 1 = 2.10e7; resting calcium signal, replicate 2 = 1.92e7; activity call = inactive
mwh (multiple wing hairs) #2 | calcium entry signal, replicate 1 = 2.88e7; calcium entry signal, replicate 2 = 2.79e7; resting calcium signal, replicate 1 = 1.35e7; resting calcium signal, replicate 2 = 1.19e7; activity call = inactive
CG13245 | calcium entry signal, replicate 1 = 4.26e7; resting calcium signal, replicate 1 = 2.16e7; activity call = inactive
Spn28Da (Serpin 28Da) | calcium entry signal, replicate 1 = 3.47e7; calcium entry signal, replicate 2 = 5.17e7; resting calcium signal, replicate 1 = 1.60e7; resting calcium signal, replicate 2 = 2.16e7; activity call = inactive
TyrRII (Tyramine receptor II) | calcium entry signal, replicate 1 = 2.12e7; calcium entry signal, replicate 2 = 3.14e7; resting calcium signal, replicate 1 = 2.79e7; resting calcium signal, replicate 2 = 1.30e7; activity call = inactive
Cdc42 (Cell division cycle 42) | calcium entry signal, replicate 1 = 3.64e7; calcium entry signal, replicate 2 = 3.18e7; resting calcium signal, replicate 1 = 1.68e7; resting calcium signal, replicate 2 = 1.24e7; activity call = inactive
tzn (tenzing norgay) | calcium entry signal, replicate 1 = 4.73e7; calcium entry signal, replicate 2 = 4.62e7; resting calcium signal, replicate 1 = 2.04e7; resting calcium signal, replicate 2 = 3.21e7; activity call = inactive
GstD4 (Glutathione S transferase D4) | calcium entry signal, replicate 1 = 2.79e7; calcium entry signal, replicate 2 = 3.24e7; resting calcium signal, replicate 1 = 1.40e7; resting calcium signal, replicate 2 = 1.65e7; activity call = inactive
DnaJ-H (DnaJ homolog) | calcium entry signal, replicate 1 = 4.75e7; calcium entry signal, replicate 2 = 3.26e7; resting calcium signal, replicate 1 = 2.12e7; resting calcium signal, replicate 2 = 1.66e7; activity call = inactive
CG14949 | calcium entry signal, replicate 1 = 3.77e7; calcium entry signal, replicate 2 = 4.99e7; resting calcium signal, replicate 1 = 1.85e7; resting calcium signal, replicate 2 = 2.05e7; activity call = inactive
CG10943 | calcium entry signal, replicate 1 = 2.57e7; calcium entry signal, replicate 2 = 4.17e7; resting calcium signal, replicate 1 = 1.32e7; resting calcium signal, replicate 2 = 1.84e7; activity call = inactive
CG13024 | calcium entry signal, replicate 1 = 2.81e7; calcium entry signal, replicate 2 = 5.55e7; resting calcium signal, replicate 1 = 1.56e7; resting calcium signal, replicate 2 = 2.37e7; activity call = inactive
side-IV + asRNA:CR17025 #1 | calcium entry signal, replicate 1 = 3.12e7; calcium entry signal, replicate 2 = 5.41e7; resting calcium signal, replicate 1 = 1.54e7; resting calcium signal, replicate 2 = 6.49e7; activity call = inactive
side-IV + asRNA:CR17025 #2 | calcium entry signal, replicate 1 = 3.39e7; calcium entry signal, replicate 2 = 4.76e7; resting calcium signal, replicate 1 = 1.67e7; resting calcium signal, replicate 2 = 6.95e7; activity call = inactive
GstD2 (Glutathione S transferase D2) | calcium entry signal, replicate 1 = 3.49e7; calcium entry signal, replicate 2 = 3.00e7; resting calcium signal, replicate 1 = 1.61e7; resting calcium signal, replicate 2 = 1.51e7; activity call = inactive
narya | calcium entry signal, replicate 1 = 4.01e7; calcium entry signal, replicate 2 = 4.07e7; resting calcium signal, replicate 1 = 1.80e7; resting calcium signal, replicate 2 = 1.67e7; activity call = inactive
CG31211 #1 | calcium entry signal, replicate 1 = 2.73e7; calcium entry signal, replicate 2 = 8.50e7; resting calcium signal, replicate 1 = 1.27e7; resting calcium signal, replicate 2 = 3.79e7; activity call = inactive
CG31211 #2 | calcium entry signal, replicate 1 = 3.00e7; calcium entry signal, replicate 2 = 3.47e7; resting calcium signal, replicate 1 = 1.58e7; resting calcium signal, replicate 2 = 1.73e7; activity call = inactive
CG31211 #3 | calcium entry signal, replicate 1 = 2.20e7; calcium entry signal, replicate 2 = 3.23e7; resting calcium signal, replicate 1 = 1.24e7; resting calcium signal, replicate 2 = 1.56e7; activity call = inactive
